Assay results reported in US20230203172A1.
Substitutions are numbered along the chain they refer to. These are yes or no findings as the source states them, for the method shown. Some entries that bind do so weakly or less than the wild type.

Chains of the proteins cited; added tags and fusions are not shown. Residues count along the entry.
UniProt P24394, residues 26-232: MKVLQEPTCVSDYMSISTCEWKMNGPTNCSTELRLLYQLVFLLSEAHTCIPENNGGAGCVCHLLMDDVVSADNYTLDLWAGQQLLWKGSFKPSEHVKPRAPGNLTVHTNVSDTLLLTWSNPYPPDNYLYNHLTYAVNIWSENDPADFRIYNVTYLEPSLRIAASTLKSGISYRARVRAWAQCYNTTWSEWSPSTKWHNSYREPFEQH

B1: murine anti-hIL-4R alpha monoclonal antibody 54 (antibody, V domains shown)
VH: EVQLQQSGPELVKPGASVKIPCKASGYTFTDYNMDWVKQSHGKSLEWIGDINPNNGNILFNQKFKGKATLTVDKSSSTAYVELRSLTSEDTAVYYCGRGGLRRRGFMDYWGQGTSVTVSS
VL: QIVLSQSPAILSASPGEKVTMTCRASSSVSYMHWYQQKPGSSPKPWIYAASNLASGVPARFSGSGSGTSYSLTISRVEAEDAATYYCQQWSSNPPTFGGGTKLEIK
B2: murine anti-hIL-4R alpha monoclonal antibody 57 (antibody, V domains shown)
VH: B1 VH
VL: B1 VL
B3: murine anti-hIL-4R alpha monoclonal antibody 75 (antibody, V domains shown)
VH: B1 VH
VL: B1 VL
B4: murine anti-hIL-4R alpha monoclonal antibody 81 (antibody, V domains shown)
VH: B1 VH with E1D, V12L, K23Q, S44N, D50N, N57G, I58T, L59F, F60Y, V81M
VL: B1 VL with S30I, M32I, S92V
B5: murine anti-hIL-4R alpha monoclonal antibody 120 (antibody, V domains shown)
VH: EVQLVESGGGLVKPGGSLKLSCAASGFTFSDYGMHWVRQAPEKGLEWVAYISSGSTTIYYADTVKGRFTISRDNGKNTLFLQMTSLRSEDTAMYYCARISTVVAKRYAMDYWGQGTSVTVSS
VL: DIQMTQTASSLSASLGDRVTISCRASQDISNYLNWYQQKPDGTVKLLIYYTSRLHSGVPSRFSGSGSGTDYSLTISNLEQEDIATYFCQQINALPLTFGAGTKLELK

Target: hIL-4R alpha-ECD-Fc (human) (UniProt P24394)
Assay: ELISA, plate coated with 1 ug/ml hIL-4R alpha-ECD-Fc

Binder | binding
B1 | binds
B2 | binds
B3 | binds
B4 | binds
B5 | binds
